Percent effect of library compounds

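Growth of Mycobacterium tuberculosis over 4 days (cholesterol / DPPC medium with tyloxapol); the read-out is not stated. Compounds at 50 µM. Direction is inferred from retests: higher values go with more growth inhibition. Of about 69,000 compounds tested this way, about 370 (0.54%) reached 50% or more in at least one test.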

Results are given as percent effect. The controls that fix the scale are not given in the record; negative values are as filed. The compounds are a random part of those screened. Two or more numbers in one place are separate tests of the same structure; such repeats can differ widely.

SMILES	Percent Effect
Cl.O=C1CC2(CCCNC2)C(=O)N1Cc1ccc(F)cc1 (stereo not shown)	5.012
COCc1nc2n(n1)CCCC2Nc1nc(C(C)C)ns1 (stereo not shown)	0.4459
CCn1cc2c(n1)CN(Cc1ccoc1)CC2COCC1CC1.O=C(O)C(F)(F)F (stereo not shown)	22.49 & 20.53
CCc1nc(C2CCCN2Cc2nc3ccccc3o2)no1 (stereo not shown)	5.535
[H][C@]12CN(CCc3cccc(F)c3)CC[C@@]1(O)CCN(S(=O)(=O)N(C)C)C2	-27.27
Cl.Cl.[H][C@@]12CC[C@@H](COCc3csc(C)n3)O[C@]1([H])CCN2	-10.65
O=C(NCC(Cc1cccc(F)c1)N1CCCC1=O)c1cnccn1 (stereo not shown)	-30.27
CC(=O)N1CCN(C(=O)CNc2ccc3sccc3c2)CC1	-25.85
Fc1cccc(N2CCCC3(CN(Cc4ccccn4)CCO3)C2)c1.O=C(O)C(F)(F)F.O=C(O)C(F)(F)F.O=C(O)C(F)(F)F (stereo not shown)	15.49
O=C(O)C(F)(F)F.[H][C@@]12COC[C@]1([H])[C@@H](OCC(=O)N(C)C)CN2Cc1cccc(C#N)c1	-25.3
CC(C)c1nc(CN(C)Cc2ncccc2C(=O)O)cs1	4.55
CCS(=O)(=O)N1CCC2(CC1)CN(CC1CCOC1)c1ccccc12.O=C(O)C(F)(F)F (stereo not shown)	-10.23
O=C(NCc1ccc(F)cc1)N1CCC(C2OCCO2)CC1	-6.159
COc1ccccc1N1CCC(NCc2c(C)noc2C)C1 (stereo not shown)	1.648 & -0.2273
Cc1cc(N2CCCC2c2cncc(N(C)C)n2)ncn1 (stereo not shown)	-10.86
O=C(C1CCCO1)N1CCC(n2cc(-c3ccsc3)nn2)CC1 (stereo not shown)	-0.1625
Cc1ccc(OCC(=O)NCC(F)(F)F)nc1	4.516 & -7.005
Cc1cc(C)n(CC2CN(CCOc3cccc(C#N)c3)CCO2)n1 (stereo not shown)	3.383
COC(=O)C1(NCC(=O)Nc2cc(C)ccc2OC)CCCCC1	20.46
CN(Cc1cnc(N)nc1)CC1CCCN(CCc2ccc(Cl)cc2)C1 (stereo not shown)	-8.713
O=C(C1CC1)N1CCCCCC1C1CCN(c2ncccn2)CC1 (stereo not shown)	2.697
Br.Cc1cc(C)c(N(CC(O)CNCc2ccccc2)S(C)(=O)=O)c(C)c1 (stereo not shown)	3.876
Cc1cc(NC(=O)C(C)Nc2cccc(COCc3ccco3)c2)on1 (stereo not shown)	-1.406
Cc1cc(C2CCCN(CCCS(C)(=O)=O)C2)n[nH]1 (stereo not shown)	-21.17
O=C(CC1CCCCC1)N1CCN(C(=O)NCc2ccccn2)CC1	-23.14
CCC(CO)N(Cc1ccsc1)CC1CC1 (stereo not shown)	-2.72 & -6.794
Cc1nc2c(c(N3C[C@@H](C)[C@@](C)(O)C3)n1)CCC2	-2.092
O=C(NCc1ccncc1)N1CCSCC1CCO (stereo not shown)	-8.514
CC(C)c1nnsc1CNC(=O)C1CCCN(C(=O)N(C)C)C1 (stereo not shown)	6.419
COCCn1c(=O)n(Cc2cccc(F)c2F)c2cc(C(=O)O)ccc21	17.11
CN(C)[C@H]1CN(C(=O)CCc2cccc(F)c2)C[C@@H]1C1CC1	1.51
O=C(O)C(F)(F)F.c1coc(CN2Cc3ccnn3CC(COCC3CC3)C2)c1 (stereo not shown)	2.943 & -2.889
CCS(=O)(=O)N1CCc2c(COCCN(C)C)cncc2C1.O=C(O)C(F)(F)F.O=C(O)C(F)(F)F	3.387
Cc1ccc(F)cc1C(=O)N1CCN(S(C)(=O)=O)[C@@H](C)C1	-12.14
O=C(NCCNc1ncccn1)C1CC(=O)N(CC(F)(F)F)C1 (stereo not shown)	-22.87
Cn1cncc1CNC1CC2(CCN(CC3CC3)CC2)c2ccccc21.O=C(O)C(F)(F)F.O=C(O)C(F)(F)F (stereo not shown)	16.8
COc1cccc(S(=O)(=O)N2CCCCC2CCN2CCCC2=O)c1 (stereo not shown)	17.21
CC1CCN(C)c2ccccc2N1C(=O)c1ccc(=O)n(C)n1 (stereo not shown)	-4.506
C[S+]([O-])CCCNCc1cc(F)ccc1Br (stereo not shown)	3.735
CC(C)c1nc(C2CCCN2CC(=O)Nc2ccc(Cl)cn2)no1 (stereo not shown)	-29.44
Cc1nc(CN2CCCC(NCc3cccc4ccccc34)C2)no1 (stereo not shown)	-30.42
CC(O)CN1CCN(C(=O)CN(C)c2ccc(C#N)cn2)CC1 (stereo not shown)	18.46
Cc1cccc(NC(=O)N2CCC(CO)(Nc3ccccc3)CC2)c1	-8.616
CN(C)S(=O)(=O)N1CCCC(c2cccc(Cc3ccccc3F)n2)C1 (stereo not shown)	-6.694
O=C(NCc1ccc(Cl)s1)c1ccc(N2CCOC2=O)cc1	-0.5239
O=C(Cn1cccnc1=O)NC(Cc1ccsc1)c1nccs1 (stereo not shown)	-15.31
Cc1nc(C)c(CNC(=O)NC2CC(C)(C)OC2(C)C)s1 (stereo not shown)	-11.93
CCn1nc(CNC(C)(C)CO)c(-c2ccccc2)n1	14.72
CN(C)c1ccc(C(=O)N2CCCC(n3cccn3)C2)cn1 (stereo not shown)	-20.77
Cc1nc(CN2CCCC(NCc3cccc(C(N)=O)c3)C2)no1 (stereo not shown)	-0.6829
Cc1nn(C)c(C)c1CC(=O)NCc1ccnc(N2CCOCC2)c1	-11.23
CCN(CCO)C(=O)C1CCC(=O)N(CCc2cccc(F)c2)C1 (stereo not shown)	13.2
Cc1cnn(CCNCC(O)COc2cc(Cl)ccc2Cl)c1 (stereo not shown)	16.49
O=C(NCCc1ccccc1)NCC(O)c1cccc(F)c1 (stereo not shown)	-4.146
CC(C)C(C)N(C(=O)Cn1nc2n(c1=O)CCCCC2)C1CC1 (stereo not shown)	0.7571
Cc1nc(C2CCCN2CCC(=O)N2CCc3ccccc32)no1 (stereo not shown)	-6.077
CNC(=O)C1CCN(C(=O)NCCc2ccc(Cl)s2)CC1	-0.8384
CC(=O)N1CCC2(CC1)COCCN2CCN(C)C.O=C(O)C(F)(F)F.O=C(O)C(F)(F)F	1.386

5 of the entries, repeated:

- O=C(O)C(F)(F)F.c1coc(CN2Cc3ccnn3CC(COCC3CC3)C2)c1 (stereo not shown) | 2.943% & -2.889%
- CC(C)C(C)N(C(=O)Cn1nc2n(c1=O)CCCCC2)C1CC1 (stereo not shown) | 0.7571%
- COCc1nc2n(n1)CCCC2Nc1nc(C(C)C)ns1 (stereo not shown) | 0.4459%
- O=C(NCc1ccc(Cl)s1)c1ccc(N2CCOC2=O)cc1 | -0.5239%
- CC(O)CN1CCN(C(=O)CN(C)c2ccc(C#N)cn2)CC1 (stereo not shown) | 18.46%

Source: ChEMBL document CHEMBL3988442, “University of Dundee, Small-Polar-MMV Screening Library” (2021).